The nature of the experiment: qHTS Assay for Lipid Storage Modulators. Conditions: Drosophila S3 cells, BODIPY lipid droplet/cell ratio, laser cytometry, cells loaded with oleic acid. (In general: In qHTS, concentration-response curves come from the screen itself.)
Setting [1] is: measured here: cell count channel max response.
[2] abbreviates: measured here: lipid channel max response.

The list shows a part of the results.

Turning to `NC(=O)Nc1ccc([As](=O)(O)O)cc1`, the max response by setting is: under setting [1], 12.2%; under setting [2], 9.24%.

With `CN(CCCl)CCCl`, the max response under setting [1] was -16.7% and the max response under setting [2] was -23.7%.

These data come from PubChem BioAssay AID1519 (National Center for Advancing Translational Sciences (NCATS), 2009).
